From publication PMC3606182 come the findings set out here.

Chains of the proteins cited; added tags and fusions are not shown. Residues count along the entry.
UniProt O43765: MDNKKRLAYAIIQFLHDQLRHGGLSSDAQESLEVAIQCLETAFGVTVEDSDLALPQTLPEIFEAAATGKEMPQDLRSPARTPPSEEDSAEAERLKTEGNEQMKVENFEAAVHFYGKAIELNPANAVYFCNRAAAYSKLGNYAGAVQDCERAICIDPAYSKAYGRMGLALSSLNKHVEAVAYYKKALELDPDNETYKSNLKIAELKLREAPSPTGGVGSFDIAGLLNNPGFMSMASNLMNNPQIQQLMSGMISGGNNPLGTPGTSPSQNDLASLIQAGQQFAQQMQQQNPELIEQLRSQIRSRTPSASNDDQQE
UniProt P48510, residues 327-371: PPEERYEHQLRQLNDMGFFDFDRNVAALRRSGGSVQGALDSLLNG

Test [1] concerns the target small-glutamine rich tetratricopeptide repeat-containing protein alpha (SGTA), immobilized (UniProt O43765). The test can be described thus: pull-down; SGTA, BSA or His-Trx immobilised on UltraLink Biosupport; [35S]-labelled wheat-germ translation product; 2 h at 25°C; washed with buffer R (50 mM HEPES-KOH pH 7.5, 40 mM potassium acetate, 5 mM MgCl2); sequential elution with 1 M NaCl, 0.5% Triton X-100, SDS sample buffer; salt-sensitive binding read by phosphorimaging; quantified as % of input after subtracting the BSA signal; only the target ….

Test [2] addresses UBA domain from Dsk2, immobilized (UniProt P48510). The test is described as follows: pull-down; altered binding conditions that favour the Dsk2-UBA interaction (manufacturer's instructions, Enzo Life Sciences); immobilised Dsk2-UBA or SGTA; [35S]-labelled wheat-germ translation product; only the target purified.

These are yes or no findings as the source states them, for the method shown. Binding seen in cells or lysates may run through a third protein. For part of these data: Where a sequence is shown, tags or fusion partners need not be part of it.

B1: BAG1, full-length human (protein, UniProt Q99933 1-345)
chain: MAQRGGARRPRGDRERLGSRLRALRPGREPRQSEPPAQRGPPPSGRPPARSTASGHDRPTRGAAAGARRPRMKKKTRRRSTRSEELTRSEELTLSEEATWSEEATQSEEATQGEEMNRSQEVTRDEESTRSEEVTREEMAAAGLTVTVTHSNEKHDLHVTSQQGSSEPVVQDLAQVVEEVIGVPQSFQKLIFKGKSLKEMETPLSALGIQDGCRVMLIGKKNSPQEEVELKKLKHLEKSVEKIADQLEELNKELTGIQQGFLPKDLQAEALCKLDRRVKATIEQFMKILEEIDTLILPENFKDSRLKRKGLVKKVQAFLAECDTVEQNICQETERLQSTNFALAE
modifications: [35S]methionine label (in vitro translation)
Turning to B1, the binding entry in test [1] is “no binding”.

B2: UBL7, full-length human (protein, UniProt Q96S82 1-380)
chain: MSLSDWHLAVKLADQPLTPKSILRLPETELGEYSLGGYSISFLKQLIAGKLQESVPDPELIDLIYCGRKLKDDQTLDFYGIQPGSTVHVLRKSWPEPDQKPEPVDKVAAMREFRVLHTALHSSSSYREAVFKMLSNKESLDQIIVATPGLSSDPIALGVLQDKDLFSVFADPNMLDTLVPAHPALVNAIVLVLHSVAGSAPMPGTDSSSRSMPSSSYRDMPGGFLFEGLSDDEDDFHPNTRSTPSSSTPSSRPASLGYSGAAGPRPITQSELATALALASTPESSSHTPTPGTQGHSSGTSPMSSGVQSGTPITNDLFSQALQHALQASGQPSLQSQWQPQLQQLRDMGIQDDELSLRALQATGGDIQAALELIFAGGAP
modifications: [35S]methionine label (in vitro translation)
Regarding B2, the binding result in test [1] is “no binding”.

B3: ubiquitin-like protein 4A (UBL4A), full-length, C-terminal V5/poly-histidine tag (protein, UniProt P11441 1-157)
chain: MQLTVKALQGRECSLQVPEDELVSTLKQLVSEKLNVPVRQQRLLFKGKALADGKRLSDYSIGPNSKLNLVVKPLEKVLLEEGEAQRLADSPPPQVWQLISKVLARHFSAADASRVLEQLQRDYERSLSRLTLDDIERLASRFLHPEVTETMEKGFSK
modifications: [35S]methionine label (in vitro translation)
Consider B3, for which the binding entry in test [2] was “no binding”.
